Reference: article PMC7094869
Results are given in words; binding and its absence hold for the method and conditions named. In cells and extracts the contact can be indirect. Some entries that bind do so weakly or less than the wild type. For some of these results: Tags and fused reporters may be left off the sequences shown.

Key:
[1] = target: T1, Vasa (Drosophila melanogaster (endogenous in testes)) (UniProt P09052); assay: co-IP; Vasa precipitated, Klp10A detected; extract of Dpp-expressing (SG tumor) testes (nos-gal4>UAS-dpp); western blot
T1 sequence: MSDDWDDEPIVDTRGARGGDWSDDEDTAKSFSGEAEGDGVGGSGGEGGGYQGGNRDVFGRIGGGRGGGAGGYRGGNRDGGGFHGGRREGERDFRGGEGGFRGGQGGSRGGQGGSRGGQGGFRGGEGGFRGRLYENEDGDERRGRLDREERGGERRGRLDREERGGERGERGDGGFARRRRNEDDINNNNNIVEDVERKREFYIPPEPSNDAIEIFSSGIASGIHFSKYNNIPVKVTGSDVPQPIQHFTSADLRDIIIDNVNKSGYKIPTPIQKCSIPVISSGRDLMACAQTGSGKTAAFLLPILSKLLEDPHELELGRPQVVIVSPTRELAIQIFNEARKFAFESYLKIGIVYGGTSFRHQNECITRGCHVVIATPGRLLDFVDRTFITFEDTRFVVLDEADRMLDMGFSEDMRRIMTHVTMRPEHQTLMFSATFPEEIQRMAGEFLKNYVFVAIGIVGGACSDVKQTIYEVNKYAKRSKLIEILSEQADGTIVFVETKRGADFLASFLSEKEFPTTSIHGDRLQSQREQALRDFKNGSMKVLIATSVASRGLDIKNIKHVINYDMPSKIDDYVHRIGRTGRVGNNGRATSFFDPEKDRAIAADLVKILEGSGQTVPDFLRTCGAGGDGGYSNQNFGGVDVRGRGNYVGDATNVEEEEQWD

[2] = target: T2, GFP-Aub (Drosophila melanogaster) (UniProt O76922); assay: co-IP; GFP-Trap magnetic beads on GFP-Aub; extract of Upd-expressing testes (nos-gal4>UAS-upd UAS-gfp-aub, control nos-gal4>UAS-upd UAS-gfp); western blot
T2 sequence: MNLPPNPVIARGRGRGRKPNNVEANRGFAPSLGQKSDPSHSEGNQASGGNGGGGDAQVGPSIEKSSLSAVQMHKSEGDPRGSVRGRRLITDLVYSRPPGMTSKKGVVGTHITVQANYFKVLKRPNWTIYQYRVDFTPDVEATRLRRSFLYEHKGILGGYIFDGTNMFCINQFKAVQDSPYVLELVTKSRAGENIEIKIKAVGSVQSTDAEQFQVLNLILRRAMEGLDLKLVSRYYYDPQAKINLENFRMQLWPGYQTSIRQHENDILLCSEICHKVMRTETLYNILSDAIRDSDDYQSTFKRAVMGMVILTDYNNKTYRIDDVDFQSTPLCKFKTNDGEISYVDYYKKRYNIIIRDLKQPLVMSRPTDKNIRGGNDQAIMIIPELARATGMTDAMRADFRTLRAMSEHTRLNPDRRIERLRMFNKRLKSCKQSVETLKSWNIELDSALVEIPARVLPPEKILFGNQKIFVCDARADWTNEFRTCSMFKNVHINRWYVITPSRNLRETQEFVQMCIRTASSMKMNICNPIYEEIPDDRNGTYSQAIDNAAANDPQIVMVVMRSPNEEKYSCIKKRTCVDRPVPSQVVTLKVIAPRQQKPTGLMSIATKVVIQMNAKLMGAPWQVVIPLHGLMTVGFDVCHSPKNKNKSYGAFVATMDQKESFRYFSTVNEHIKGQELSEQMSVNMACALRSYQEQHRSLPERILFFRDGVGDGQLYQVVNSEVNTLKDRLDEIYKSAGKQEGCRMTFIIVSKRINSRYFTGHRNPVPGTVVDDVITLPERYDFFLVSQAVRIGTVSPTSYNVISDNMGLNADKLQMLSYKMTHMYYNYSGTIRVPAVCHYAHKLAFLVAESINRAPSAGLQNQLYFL

[3] = target: T3, Klp10A (Drosophila melanogaster (endogenous in testes)) (UniProt Q960Z0); assay: co-IP; anti-Klp10A immunoprecipitation; extract of Dpp-expressing (SG tumor) testes (nos-gal4>UAS-dpp); western blot
T3 sequence: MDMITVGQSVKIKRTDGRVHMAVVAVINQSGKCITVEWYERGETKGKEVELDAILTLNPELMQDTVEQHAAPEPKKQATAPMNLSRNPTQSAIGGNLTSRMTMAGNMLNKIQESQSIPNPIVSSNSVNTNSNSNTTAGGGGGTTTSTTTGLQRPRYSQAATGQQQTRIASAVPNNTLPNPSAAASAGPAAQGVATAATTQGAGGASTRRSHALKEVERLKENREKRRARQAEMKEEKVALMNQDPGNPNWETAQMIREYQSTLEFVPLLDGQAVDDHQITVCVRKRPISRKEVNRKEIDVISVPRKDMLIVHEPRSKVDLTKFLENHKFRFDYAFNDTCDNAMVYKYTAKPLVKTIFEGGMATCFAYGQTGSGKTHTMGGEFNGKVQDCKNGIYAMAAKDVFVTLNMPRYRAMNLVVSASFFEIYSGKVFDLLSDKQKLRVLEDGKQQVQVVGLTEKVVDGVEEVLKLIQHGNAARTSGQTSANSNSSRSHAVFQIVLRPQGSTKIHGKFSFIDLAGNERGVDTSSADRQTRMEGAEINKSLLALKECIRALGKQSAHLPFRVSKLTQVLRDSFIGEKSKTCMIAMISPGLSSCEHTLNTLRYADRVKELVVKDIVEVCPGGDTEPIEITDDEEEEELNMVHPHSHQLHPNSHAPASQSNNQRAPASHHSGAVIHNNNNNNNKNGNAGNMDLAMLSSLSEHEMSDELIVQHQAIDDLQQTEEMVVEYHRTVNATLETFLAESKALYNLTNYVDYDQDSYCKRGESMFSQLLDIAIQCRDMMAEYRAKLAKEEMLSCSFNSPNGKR

B1: Klp10A (protein, UniProt Q960Z0 1-805)
chain: MDMITVGQSVKIKRTDGRVHMAVVAVINQSGKCITVEWYERGETKGKEVELDAILTLNPELMQDTVEQHAAPEPKKQATAPMNLSRNPTQSAIGGNLTSRMTMAGNMLNKIQESQSIPNPIVSSNSVNTNSNSNTTAGGGGGTTTSTTTGLQRPRYSQAATGQQQTRIASAVPNNTLPNPSAAASAGPAAQGVATAATTQGAGGASTRRSHALKEVERLKENREKRRARQAEMKEEKVALMNQDPGNPNWETAQMIREYQSTLEFVPLLDGQAVDDHQITVCVRKRPISRKEVNRKEIDVISVPRKDMLIVHEPRSKVDLTKFLENHKFRFDYAFNDTCDNAMVYKYTAKPLVKTIFEGGMATCFAYGQTGSGKTHTMGGEFNGKVQDCKNGIYAMAAKDVFVTLNMPRYRAMNLVVSASFFEIYSGKVFDLLSDKQKLRVLEDGKQQVQVVGLTEKVVDGVEEVLKLIQHGNAARTSGQTSANSNSSRSHAVFQIVLRPQGSTKIHGKFSFIDLAGNERGVDTSSADRQTRMEGAEINKSLLALKECIRALGKQSAHLPFRVSKLTQVLRDSFIGEKSKTCMIAMISPGLSSCEHTLNTLRYADRVKELVVKDIVEVCPGGDTEPIEITDDEEEEELNMVHPHSHQLHPNSHAPASQSNNQRAPASHHSGAVIHNNNNNNNKNGNAGNMDLAMLSSLSEHEMSDELIVQHQAIDDLQQTEEMVVEYHRTVNATLETFLAESKALYNLTNYVDYDQDSYCKRGESMFSQLLDIAIQCRDMMAEYRAKLAKEEMLSCSFNSPNGKR
binding [1]: binds | binding [2]: binds

B2: Argonaute 3 (protein, UniProt Q7PLK0 1-867)
chain: MSGRGNLLSLFNKNAGNMGKSISSKDHEIDSGLDFNNSESSGERLLSSHNIETDLITTLQHVNISVGRGRARLIDTLKTDDHTSNQFITSESKENITKKTKGPESEAIASENGLFFPDLIYGSKGSSVNIYCNYLKLTTDESKGVFNYEVRFFPPIDSVHLRIKYLNDHKDKLGGTKTFDGNTLYLPILLPNKMTVFISKAEDVELQIRILYKKKEEMRNCTQLYNILFDRVMKVLNYVKFDRKQFDPSRPKIIPLAKLEVWPGYVTAVDEYKGGLMLCCDVSHRILCQKTVLEMLVDLYQQNVEHYQESARKMLVGNIVLTRYNNRTYKINDICFDQNPTCQFEIKTGCTSYVEYYKQYHNINIKDVNQPLIYSIKKSRGIPAERENLQFCLIPELCYLTGLRDEVRSDNKLMREIATFTRVSPNQRQMALNKFYENVSNTPAAQEILNSWGLSLTNNSNKISGRQMDIEQIYFSKISVSAGRSAEFSKHAVTNEMLKVVHLSKWIIIHLRNYRQAATSLLDNMKQACESLGMNISNPTMISLDHDRIDAYIQALRRNITMNTQMVVCICHNRRDDRYAAIKKICCSEIPIPSQVINAKTLQNDLKIRSVVQKIVLQMNCKLGGSLWTVKIPFKNVMICGIDSYHDPSNRGNSVAAFVASINSSYSQWYSKAVVQTKREEIVNGLSASFEIALKMYRKRNGKLPTNIIIYRDGIGDGQLYTCLNYEIPQFEMVCGNRIKISYIVVQKRINTRIFSGSGIHLENPLPGTVVDQHITKSNMYDFFLVSQLVRQGTVTPTHYVVLRDDCNYGPDIIQKLSYKLCFLYYNWAGTVRIPACCMYAHKLAYLIGQSIQRDVAEALSEKLFYL
binding [3]: binds

B3: Piwi (protein, UniProt Q9VKM1 1-843)
chain: MADDQGRGRRRPLNEDDSSTSRGSGDGPRVKVFRGSSSGDPRADPRIEASRERRALEEAPRREGGPTERKPWGDQYDYLNTRPAELVSKKGTDGVPVMLQTNFFRLKTKPEWRIVHYHVEFEPSIENPRVRMGVLSNHANLLGSGYLFDGLQLFTTRKFEQEITVLSGKSKLDIEYKISIKFVGFISCAEPRFLQVLNLILRRSMKGLNLELVGRNLFDPRAKIEIREFKMELWPGYETSIRQHEKDILLGTEITHKVMRTETIYDIMRRCSHNPARHQDEVRVNVLDLIVLTDYNNRTYRINDVDFGQTPKSTFSCKGRDISFVEYYLTKYNIRIRDHNQPLLISKNRDKALKTNASELVVLIPELCRVTGLNAEMRSNFQLMRAMSSYTRMNPKQRTDRLRAFNHRLQNTPESVKVLRDWNMELDKNVTEVQGRIIGQQNIVFHNGKVPAGENADWQRHFRDQRMLTTPSDGLDRWAVIAPQRNSHELRTLLDSLYRAASGMGLRIRSPQEFIIYDDRTGTYVRAMDDCVRSDPKLILCLVPNDNAERYSSIKKRGYVDRAVPTQVVTLKTTKNRSLMSIATKIAIQLNCKLGYTPWMIELPLSGLMTIGFDIAKSTRDRKRAYGALIASMDLQQNSTYFSTVTECSAFDVLANTLWPMIAKALRQYQHEHRKLPSRIVFYRDGVSSGSLKQLFEFEVKDIIEKLKTEYARVQLSPPQLAYIVVTRSMNTRFFLNGQNPPPGTIVDDVITLPERYDFYLVSQQVRQGTVSPTSYNVLYSSMGLSPEKMQKLTYKMCHLYYNWSGTTRVPAVCQYAKKLATLVGTNLHSIPQNALEKKFYYL
binding [3]: binds
